Measurements taken from the supplement of paper PMC12823440, “Inhibitors supercharge kinase turnover through native proteolytic circuits” (Nature, 2025).
The list shows a part of the results. Hit calls seldom repeat between salt and free forms of one compound.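 Kinases, fused to nanoluciferase, were expressed in K562 cells; luminescence was measured every 4 h from 2 to 18 h as percent of control (DMSO = 100%, positive control = 0%). A time point is decreased if signal falls significantly (2 sigma). Hits were called by the authors by a rule that is not shown; the count of time points alone does not decide it.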

Sequences of proteins named here, by UniProt entry; tags and fusion partners are left off. A change or cut given only in a name is not applied to a line headed by its entry.
UniProt Q9Y616: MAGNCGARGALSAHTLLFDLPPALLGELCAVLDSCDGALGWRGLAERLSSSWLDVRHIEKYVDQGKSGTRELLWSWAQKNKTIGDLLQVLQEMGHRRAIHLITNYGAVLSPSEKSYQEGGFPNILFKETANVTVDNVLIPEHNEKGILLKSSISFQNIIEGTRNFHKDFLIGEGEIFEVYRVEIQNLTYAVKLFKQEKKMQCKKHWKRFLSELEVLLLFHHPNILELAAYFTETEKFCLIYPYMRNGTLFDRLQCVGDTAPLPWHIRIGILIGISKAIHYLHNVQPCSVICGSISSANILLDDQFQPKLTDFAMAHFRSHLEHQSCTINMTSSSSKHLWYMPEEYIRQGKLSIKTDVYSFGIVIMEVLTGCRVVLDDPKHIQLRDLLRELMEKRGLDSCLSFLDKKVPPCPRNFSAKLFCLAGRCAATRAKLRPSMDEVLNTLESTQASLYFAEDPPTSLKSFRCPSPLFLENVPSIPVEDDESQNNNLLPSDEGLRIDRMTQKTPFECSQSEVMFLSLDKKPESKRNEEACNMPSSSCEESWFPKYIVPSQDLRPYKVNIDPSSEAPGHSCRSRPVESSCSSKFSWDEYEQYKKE
UniProt P23458: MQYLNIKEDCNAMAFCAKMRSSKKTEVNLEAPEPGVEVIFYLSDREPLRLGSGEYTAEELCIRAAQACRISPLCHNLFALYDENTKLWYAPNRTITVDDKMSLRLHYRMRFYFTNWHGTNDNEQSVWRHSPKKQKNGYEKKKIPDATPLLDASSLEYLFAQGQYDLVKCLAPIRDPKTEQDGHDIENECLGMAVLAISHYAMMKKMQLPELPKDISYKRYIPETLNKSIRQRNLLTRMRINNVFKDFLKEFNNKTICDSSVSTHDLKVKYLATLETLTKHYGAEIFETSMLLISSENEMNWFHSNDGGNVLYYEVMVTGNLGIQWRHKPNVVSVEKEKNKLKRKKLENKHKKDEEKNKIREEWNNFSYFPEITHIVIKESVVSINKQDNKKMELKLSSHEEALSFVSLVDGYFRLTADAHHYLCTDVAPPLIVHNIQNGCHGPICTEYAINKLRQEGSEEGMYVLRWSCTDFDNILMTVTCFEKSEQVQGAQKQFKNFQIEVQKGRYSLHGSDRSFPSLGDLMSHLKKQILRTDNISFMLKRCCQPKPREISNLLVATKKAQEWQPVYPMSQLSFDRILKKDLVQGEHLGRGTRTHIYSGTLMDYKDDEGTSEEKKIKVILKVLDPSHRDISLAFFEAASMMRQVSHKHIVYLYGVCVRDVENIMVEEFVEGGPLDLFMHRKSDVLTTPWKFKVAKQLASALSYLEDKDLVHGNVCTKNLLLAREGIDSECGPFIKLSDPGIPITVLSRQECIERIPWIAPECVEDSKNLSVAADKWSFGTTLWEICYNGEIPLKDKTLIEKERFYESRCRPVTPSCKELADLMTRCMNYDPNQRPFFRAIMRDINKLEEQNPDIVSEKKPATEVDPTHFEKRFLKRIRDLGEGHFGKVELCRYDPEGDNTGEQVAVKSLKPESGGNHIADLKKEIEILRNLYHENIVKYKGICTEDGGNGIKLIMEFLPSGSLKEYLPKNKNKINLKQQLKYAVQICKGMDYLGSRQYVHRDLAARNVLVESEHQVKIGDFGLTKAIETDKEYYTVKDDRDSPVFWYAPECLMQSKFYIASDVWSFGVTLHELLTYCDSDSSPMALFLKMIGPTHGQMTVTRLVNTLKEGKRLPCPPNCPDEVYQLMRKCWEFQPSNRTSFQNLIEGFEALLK
UniProt P06239: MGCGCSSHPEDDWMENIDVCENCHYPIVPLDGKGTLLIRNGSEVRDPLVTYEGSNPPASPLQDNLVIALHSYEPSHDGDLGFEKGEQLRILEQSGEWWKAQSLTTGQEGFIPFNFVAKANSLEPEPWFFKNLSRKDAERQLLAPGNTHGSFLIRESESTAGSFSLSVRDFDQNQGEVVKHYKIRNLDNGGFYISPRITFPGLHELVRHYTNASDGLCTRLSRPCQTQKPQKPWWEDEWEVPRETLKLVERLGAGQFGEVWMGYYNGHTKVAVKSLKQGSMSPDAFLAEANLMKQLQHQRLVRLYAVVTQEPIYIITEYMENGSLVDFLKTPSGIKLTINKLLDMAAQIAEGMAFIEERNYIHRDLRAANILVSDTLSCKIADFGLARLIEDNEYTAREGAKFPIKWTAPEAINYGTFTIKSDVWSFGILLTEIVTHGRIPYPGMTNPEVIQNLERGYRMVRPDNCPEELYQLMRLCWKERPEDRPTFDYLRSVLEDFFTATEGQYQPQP
UniProt P53667: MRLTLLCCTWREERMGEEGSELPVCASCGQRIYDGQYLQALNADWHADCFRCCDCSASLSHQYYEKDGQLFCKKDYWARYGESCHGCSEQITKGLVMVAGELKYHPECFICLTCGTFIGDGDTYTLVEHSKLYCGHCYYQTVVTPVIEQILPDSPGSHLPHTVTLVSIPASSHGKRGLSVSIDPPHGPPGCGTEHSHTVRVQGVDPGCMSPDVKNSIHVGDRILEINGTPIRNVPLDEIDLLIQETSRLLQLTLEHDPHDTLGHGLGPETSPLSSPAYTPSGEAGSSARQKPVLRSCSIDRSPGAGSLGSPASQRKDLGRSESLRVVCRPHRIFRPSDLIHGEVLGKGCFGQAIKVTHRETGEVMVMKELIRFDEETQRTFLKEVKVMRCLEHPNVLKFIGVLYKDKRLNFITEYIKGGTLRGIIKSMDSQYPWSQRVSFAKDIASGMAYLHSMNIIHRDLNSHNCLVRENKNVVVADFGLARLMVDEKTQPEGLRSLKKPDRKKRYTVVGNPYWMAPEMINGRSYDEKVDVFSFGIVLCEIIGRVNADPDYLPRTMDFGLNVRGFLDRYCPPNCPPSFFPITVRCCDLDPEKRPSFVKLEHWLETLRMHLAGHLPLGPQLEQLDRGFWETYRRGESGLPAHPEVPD
UniProt P53671: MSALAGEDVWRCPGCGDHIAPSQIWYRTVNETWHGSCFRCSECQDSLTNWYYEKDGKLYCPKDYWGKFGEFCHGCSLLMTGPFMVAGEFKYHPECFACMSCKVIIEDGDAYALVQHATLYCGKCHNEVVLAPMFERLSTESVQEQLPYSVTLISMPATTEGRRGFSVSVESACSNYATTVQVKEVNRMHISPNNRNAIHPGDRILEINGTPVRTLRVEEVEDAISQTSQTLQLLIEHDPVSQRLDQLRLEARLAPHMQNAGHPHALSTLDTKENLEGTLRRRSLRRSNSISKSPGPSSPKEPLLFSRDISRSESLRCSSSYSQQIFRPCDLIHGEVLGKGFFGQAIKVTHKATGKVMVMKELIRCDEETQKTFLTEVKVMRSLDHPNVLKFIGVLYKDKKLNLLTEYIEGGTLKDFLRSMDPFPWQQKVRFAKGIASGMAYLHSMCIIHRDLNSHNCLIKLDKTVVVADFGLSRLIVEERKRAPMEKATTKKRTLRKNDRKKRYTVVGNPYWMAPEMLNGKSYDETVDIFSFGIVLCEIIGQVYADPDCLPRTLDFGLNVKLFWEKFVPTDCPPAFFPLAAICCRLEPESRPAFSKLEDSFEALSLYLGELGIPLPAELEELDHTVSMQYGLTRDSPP
UniProt Q8IWU2: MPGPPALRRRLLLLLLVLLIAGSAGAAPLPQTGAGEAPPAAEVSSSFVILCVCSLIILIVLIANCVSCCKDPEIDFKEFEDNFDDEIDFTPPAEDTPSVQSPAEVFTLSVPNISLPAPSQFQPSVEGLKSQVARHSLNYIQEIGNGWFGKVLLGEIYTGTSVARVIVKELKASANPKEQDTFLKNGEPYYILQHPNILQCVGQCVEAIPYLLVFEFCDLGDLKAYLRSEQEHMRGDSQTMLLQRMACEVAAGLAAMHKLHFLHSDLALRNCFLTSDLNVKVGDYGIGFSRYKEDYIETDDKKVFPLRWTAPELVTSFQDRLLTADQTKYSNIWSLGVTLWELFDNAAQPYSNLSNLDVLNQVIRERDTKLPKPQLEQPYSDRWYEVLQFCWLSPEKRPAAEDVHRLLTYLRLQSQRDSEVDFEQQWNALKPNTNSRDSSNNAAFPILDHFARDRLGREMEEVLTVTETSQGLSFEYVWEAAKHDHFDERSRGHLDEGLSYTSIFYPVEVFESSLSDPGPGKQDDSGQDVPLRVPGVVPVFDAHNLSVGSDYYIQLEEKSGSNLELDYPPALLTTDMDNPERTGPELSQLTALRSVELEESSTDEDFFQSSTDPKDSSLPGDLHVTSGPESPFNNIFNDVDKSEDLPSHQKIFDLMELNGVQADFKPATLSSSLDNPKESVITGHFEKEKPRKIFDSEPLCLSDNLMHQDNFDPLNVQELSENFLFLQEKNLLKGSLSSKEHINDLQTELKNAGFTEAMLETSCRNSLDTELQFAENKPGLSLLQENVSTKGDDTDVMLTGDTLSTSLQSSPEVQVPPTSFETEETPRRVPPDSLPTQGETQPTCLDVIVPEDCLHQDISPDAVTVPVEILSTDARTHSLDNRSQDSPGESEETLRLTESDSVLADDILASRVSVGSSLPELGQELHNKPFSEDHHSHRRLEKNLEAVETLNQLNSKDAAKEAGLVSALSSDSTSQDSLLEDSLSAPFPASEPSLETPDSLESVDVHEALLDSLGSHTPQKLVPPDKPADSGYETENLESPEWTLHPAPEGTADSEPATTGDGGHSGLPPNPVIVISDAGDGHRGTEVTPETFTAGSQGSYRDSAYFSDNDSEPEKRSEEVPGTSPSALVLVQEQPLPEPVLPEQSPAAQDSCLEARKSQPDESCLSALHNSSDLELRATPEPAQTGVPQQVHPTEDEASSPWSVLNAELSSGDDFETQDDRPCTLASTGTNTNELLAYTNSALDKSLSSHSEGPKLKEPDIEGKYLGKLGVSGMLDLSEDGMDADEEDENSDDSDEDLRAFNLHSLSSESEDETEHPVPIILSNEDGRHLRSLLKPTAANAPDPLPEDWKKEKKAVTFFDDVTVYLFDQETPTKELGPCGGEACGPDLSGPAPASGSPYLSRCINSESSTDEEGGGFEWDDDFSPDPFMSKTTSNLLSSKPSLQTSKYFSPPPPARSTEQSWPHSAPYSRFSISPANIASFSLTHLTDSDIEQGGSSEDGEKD
UniProt P07948: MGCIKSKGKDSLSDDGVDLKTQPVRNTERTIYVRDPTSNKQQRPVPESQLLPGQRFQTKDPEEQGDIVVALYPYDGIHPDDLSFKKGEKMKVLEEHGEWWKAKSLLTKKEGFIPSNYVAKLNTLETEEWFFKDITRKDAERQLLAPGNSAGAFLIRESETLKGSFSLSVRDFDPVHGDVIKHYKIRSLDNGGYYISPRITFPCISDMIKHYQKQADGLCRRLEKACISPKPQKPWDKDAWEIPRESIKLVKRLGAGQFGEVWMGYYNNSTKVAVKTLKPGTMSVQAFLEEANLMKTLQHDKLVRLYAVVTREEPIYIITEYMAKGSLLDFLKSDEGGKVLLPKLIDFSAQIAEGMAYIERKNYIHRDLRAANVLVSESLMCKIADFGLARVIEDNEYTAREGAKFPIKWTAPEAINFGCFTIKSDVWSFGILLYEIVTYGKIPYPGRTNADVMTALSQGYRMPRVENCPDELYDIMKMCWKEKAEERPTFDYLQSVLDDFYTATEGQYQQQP
UniProt Q12851: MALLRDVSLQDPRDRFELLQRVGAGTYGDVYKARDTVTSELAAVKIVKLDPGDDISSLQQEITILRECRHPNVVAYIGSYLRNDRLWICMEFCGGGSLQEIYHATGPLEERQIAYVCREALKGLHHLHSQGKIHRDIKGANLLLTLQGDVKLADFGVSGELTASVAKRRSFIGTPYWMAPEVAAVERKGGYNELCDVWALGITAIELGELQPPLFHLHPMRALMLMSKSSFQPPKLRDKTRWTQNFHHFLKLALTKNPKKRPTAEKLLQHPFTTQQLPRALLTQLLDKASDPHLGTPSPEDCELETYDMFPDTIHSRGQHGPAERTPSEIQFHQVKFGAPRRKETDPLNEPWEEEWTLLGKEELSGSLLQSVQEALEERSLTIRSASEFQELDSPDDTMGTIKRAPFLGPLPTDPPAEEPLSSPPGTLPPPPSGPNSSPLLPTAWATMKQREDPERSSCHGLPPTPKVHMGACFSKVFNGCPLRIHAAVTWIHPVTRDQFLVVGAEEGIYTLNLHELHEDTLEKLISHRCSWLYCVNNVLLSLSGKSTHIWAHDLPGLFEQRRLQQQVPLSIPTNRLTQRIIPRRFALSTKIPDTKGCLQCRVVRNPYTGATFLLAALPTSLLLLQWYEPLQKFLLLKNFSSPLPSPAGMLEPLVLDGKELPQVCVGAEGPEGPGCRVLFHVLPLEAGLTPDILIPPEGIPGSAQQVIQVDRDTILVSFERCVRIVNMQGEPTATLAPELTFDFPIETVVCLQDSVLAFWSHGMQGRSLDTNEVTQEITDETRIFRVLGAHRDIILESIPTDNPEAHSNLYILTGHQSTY

Tests used:
Assay in all cases: kinase-Nluc reporter destabilization hit call (1 = scored as downregulated) (binary); higher = compound decreases kinase abundance
Settings in all cases: K562; 2-18 h
[1] = molecular target: IRAK3 (UniProt Q9Y616)
[2] = molecular target: JAK1 (UniProt P23458)
[3] = molecular target: LCK (UniProt P06239)
[4] = molecular target: LIMK1 (UniProt P53667)
[5] = molecular target: LIMK2 (UniProt P53671)
[6] = molecular target: LMTK2 (UniProt Q8IWU2)
[7] = molecular target: LYN (UniProt P07948)
[8] = molecular target: MAP2K1 (UniProt Q02750)
[9] = molecular target: MAP2K2 (UniProt P36507)
[10] = molecular target: MAP4K2 (UniProt Q12851)

Measured: kinase-Nluc reporter destabilization hit call

O=C1Nc2ccccc2/C1=C/c1ccc(F)cc1 (10 µM)
inactive: [1] 0 | [2] 0 | [3] 0 | [4] 0 | [5] 0 | [6] 0 | [7] 0 | [8] 0 | [9] 0 | [10] 0

CN(C)C(=O)/C(C#N)=C/c1ccc(-c2nc3cnc4[nH]ccc4c3n2C2CCCCC2)o1 (10 µM)
inactive: [1] 0 | [2] 0 | [3] 0 | [4] 0 | [5] 0 | [6] 0 | [7] 0 | [8] 0 | [9] 0 | [10] 0

C=CC(=O)N1CC[C@H](n2nc(C#Cc3cc(OC)cc(OC)c3)c3c(N)ncnc32)C1 [Futibatinib] (10 µM)
inactive: [1] 0 | [2] 0 | [3] 0 | [4] 0 | [5] 0 | [6] 0 | [7] 0 | [8] 0 | [9] 0 | [10] 0

C[C@]1(O)C[C@@H](c2nc(-c3ccc4ccc(-c5ccccc5)nc4c3)c3c(N)nccn32)C1 [Linsitinib] (2.5 µM)
inactive: [1] 0 | [2] 0 | [3] 0 | [4] 0 | [5] 0 | [6] 0 | [7] 0 | [8] 0 | [9] 0 | [10] 0

CC(=O)N1CCN(c2ccc(OCC3COC(Cn4ccnc4)(c4ccc(Cl)cc4Cl)O3)cc2)CC1 (stereo not given) [Ketoconazole] (2.5 µM)
inactive: [1] 0 | [2] 0 | [3] 0 | [4] 0 | [5] 0 | [6] 0 | [7] 0 | [8] 0 | [9] 0 | [10] 0

O=c1oc2c(C3OCCCO3)c(O)ccc2c2c1CNCC2 (10 µM)
inactive: [1] 0 | [2] 0 | [3] 0 | [4] 0 | [5] 0 | [6] 0 | [7] 0 | [8] 0 | [9] 0 | [10] 0

CCCCOc1c(C(=O)c2c(F)cc(C)cc2F)c[nH]c2nncc1-2 (10 µM)
inactive: [1] 0 | [2] 0 | [3] 0 | [4] 0 | [5] 0 | [6] 0 | [7] 0 | [8] 0 | [9] 0 | [10] 0

CCn1c(=O)c2cc(C(N)=O)c(N)nc2n(C2CC2)c1=O (10 µM)
inactive: [1] 0 | [2] 0 | [3] 0 | [4] 0 | [5] 0 | [6] 0 | [7] 0 | [8] 0 | [9] 0 | [10] 0

COc1ccc(F)c(F)c1C(=O)c1cnc(NC2CCN(S(C)(=O)=O)CC2)nc1N (2.5 µM)
inactive: [1] 0 | [2] 0 | [3] 0 | [4] 0 | [5] 0 | [6] 0 | [7] 0 | [8] 0 | [9] 0 | [10] 0

CC(C)(/C=C(\C#N)C(=O)N1CCC[C@@H](n2nc(-c3ccc(Oc4ccccc4)cc3F)c3c(N)ncnc32)C1)N1CCN(C2COC2)CC1 (2.5 µM)
inactive: [1] 0 | [2] 0 | [3] 0 | [4] 0 | [5] 0 | [6] 0 | [7] 0 | [8] 0 | [9] 0 | [10] 0

COc1cc(N2CCC(N)CC2)ccc1Nc1ncc(Cl)c(-c2c[nH]c3ccccc23)n1 (2.5 µM)
inactive: [1] 0 | [2] 0 | [3] 0 | [4] 0 | [5] 0 | [6] 0 | [7] 0 | [8] 0 | [9] 0 | [10] 0

COc1cc2ncnc(Nc3cccc(Cl)c3F)c2cc1OC(=O)N1CCN(C)C[C@H]1C [Zorifertinib] (10 µM)
inactive: [1] 0 | [2] 0 | [3] 0 | [4] 0 | [5] 0 | [6] 0 | [7] 0 | [8] 0 | [9] 0 | [10] 0

O=C(Nc1ccc(-c2ccnc(Nc3ccc(N4CCOCC4)cc3)n2)cc1)C1CCCN1 (stereo not given) (10 µM)
inactive: [1] 0 | [2] 0 | [3] 0 | [4] 0 | [5] 0 | [6] 0 | [7] 0 | [8] 0 | [9] 0 | [10] 0

CCCS(=O)(=O)Nc1ccc(F)c(C(=O)c2c[nH]c3ncc(Cl)cc23)c1F (10 µM)
inactive: [1] 0 | [2] 0 | [3] 0 | [4] 0 | [5] 0 | [6] 0 | [7] 0 | [8] 0 | [9] 0 | [10] 0

COCc1c(-c2ccc(NC(=O)Nc3cc(C(F)(F)F)ccc3F)c(F)c2)c2c(N)ncnn2c1CN1CCOCC1 (2.5 µM)
inactive: [1] 0 | [2] 0 | [3] 0 | [4] 0 | [5] 0 | [6] 0 | [7] 0 | [8] 0 | [9] 0 | [10] 0

CN1CCC(Nc2ncc3ncnc(Nc4ccc(F)c(Cl)c4)c3n2)CC1 [Falnidamol] (10 µM)
inactive: [1] 0 | [2] 0 | [3] 0 | [4] 0 | [5] 0 | [6] 0 | [7] 0 | [8] 0 | [9] 0 | [10] 0

CCN1CCN(Cc2ccc(C(=O)Nc3ccc(C)c(Oc4ccc5c(c4)CC(=O)N5)c3)cc2C(F)(F)F)CC1 (2.5 µM)
inactive: [1] 0 | [2] 0 | [3] 0 | [4] 0 | [5] 0 | [6] 0 | [7] 0 | [8] 0 | [9] 0 | [10] 0

As a working copy, two of the compounds above.
CN1CCC(Nc2ncc3ncnc(Nc4ccc(F)c(Cl)c4)c3n2)CC1 [Falnidamol] (10 µM)
inactive: [1] 0 | [2] 0 | [3] 0 | [4] 0 | [5] 0 | [6] 0 | [7] 0 | [8] 0 | [9] 0 | [10] 0

CCN1CCN(Cc2ccc(C(=O)Nc3ccc(C)c(Oc4ccc5c(c4)CC(=O)N5)c3)cc2C(F)(F)F)CC1 (2.5 µM)
inactive: [1] 0 | [2] 0 | [3] 0 | [4] 0 | [5] 0 | [6] 0 | [7] 0 | [8] 0 | [9] 0 | [10] 0

Following part.

NC(=O)c1ccc(-c2nc(-c3ccccn3)c(-c3ccc4c(c3)OCO4)[nH]2)cc1 (10 µM)
inactive: [1] 0 | [2] 0 | [3] 0 | [4] 0 | [5] 0 | [6] 0 | [7] 0 | [8] 0 | [9] 0 | [10] 0

COc1cc(C=C(C#N)C(N)=O)cc(CSc2nc3ccccc3s2)c1O (10 µM)
inactive: [1] 0 | [2] 0 | [3] 0 | [4] 0 | [5] 0 | [6] 0 | [7] 0 | [8] 0 | [9] 0 | [10] 0

Cc1ccc(NC(=O)Nc2nnc(Sc3ncnc4cc(OCCCN5CCOCC5)ccc34)s2)cc1 (10 µM)
inactive: [1] 0 | [2] 0 | [3] 0 | [4] 0 | [5] 0 | [6] 0 | [7] 0 | [8] 0 | [9] 0 | [10] 0

COc1cc2c(Nc3ccc(Br)cc3F)ncnc2cc1OCCn1ccnn1 (10 µM)
inactive: [1] 0 | [2] 0 | [3] 0 | [4] 0 | [5] 0 | [6] 0 | [7] 0 | [8] 0 | [9] 0 | [10] 0

O=C(Nc1cc(C(F)(F)F)ccc1N1CCN(Cc2ccccn2)CC1)c1ccc(-c2ccncc2)o1 (10 µM)
inactive: [1] 0 | [2] 0 | [3] 0 | [4] 0 | [5] 0 | [6] 0 | [7] 0 | [8] 0 | [9] 0 | [10] 0

O=c1c(O)c(-c2ccc(O)c(O)c2)oc2cc(O)cc(O)c12 [Quercetin (dihydrate)] (10 µM)
inactive: [1] 0 | [2] 0 | [3] 0 | [4] 0 | [5] 0 | [6] 0 | [7] 0 | [8] 0 | [9] 0 | [10] 0

CCN1C(=O)N(c2c(F)c(OC)cc(OC)c2F)Cc2cnc3[nH]c(CN4CCOCC4)cc3c21 [Pemigatinib] (10 µM)
inactive: [1] 0 | [2] 0 | [3] 0 | [4] 0 | [5] 0 | [6] 0 | [7] 0 | [8] 0 | [9] 0 | [10] 0

CC(C)Oc1cc(Nc2nc(N[C@@H](C)c3ccc(F)cn3)ncc2Cl)n[nH]1 (10 µM)
inactive: [1] 0 | [2] 0 | [3] 0 | [4] 0 | [5] 0 | [6] 0 | [7] 0 | [8] 0 | [9] 0 | [10] 0

O=C([O-])c1ccccc1O.[Na+] [Sodium Salicylate] (10 µM)
inactive: [1] 0 | [2] 0 | [3] 0 | [4] 0 | [5] 0 | [6] 0 | [7] 0 | [8] 0 | [9] 0 | [10] 0

CC#CC(=O)N[C@H]1CCCN(c2c(F)cc(C(N)=O)c3[nH]c(C)c(C)c23)C1 [Branebrutinib] (10 µM)
inactive: [1] 0 | [2] 0 | [3] 0 | [4] 0 | [5] 0 | [6] 0 | [7] 0 | [8] 0 | [9] 0 | [10] 0

Cc1cccc(Cn2nc(C3CC3)c3c(NC(=O)c4cnc5cc(OCCN6CCN(C)CC6)ccn45)cccc32)n1 (10 µM)
inactive: [1] 0 | [2] 0 | [3] 0 | [4] 0 | [5] 0 | [6] 0 | [7] 0 | [8] 0 | [9] 0 | [10] 0

CCCCC[C@H](O)CC(=O)CCc1ccc(O)c(OC)c1 [[6]-Gingerol] (10 µM)
inactive: [1] 0 | [2] 0 | [3] 0 | [4] 0 | [5] 0 | [6] 0 | [7] 0 | [8] 0 | [9] 0 | [10] 0

CN(C)Cc1ccc(-c2cnn3c(-c4cccc(NC(=O)c5cccc(C(F)(F)F)c5)c4)ccnc23)cc1 (2.5 µM)
inactive: [1] 0 | [2] 0 | [3] 0 | [4] 0 | [5] 0 | [6] 0 | [7] 0 | [8] 0 | [9] 0 | [10] 0

C=CC(=O)Nc1ccc2ncnc(Nc3cccc(Br)c3)c2c1 (10 µM)
inactive: [1] 0 | [2] 0 | [3] 0 | [4] 0 | [5] 0 | [6] 0 | [7] 0 | [8] 0 | [9] 0 | [10] 0

O=C1Cc2c([nH]c3ccc(Br)cc23)-c2ncccc2N1 [1-Azakenpaullone] (10 µM)
inactive: [1] 0 | [2] 0 | [3] 0 | [4] 0 | [5] 0 | [6] 0 | [7] 0 | [8] 0 | [9] 0 | [10] 0

COc1cc(Oc2ccnc3cc(OC)c(OC)cc23)ccc1NC(=O)NC(C)c1nccs1 (stereo not given) (2.5 µM)
inactive: [1] 0 | [2] 0 | [3] 0 | [4] 0 | [5] 0 | [6] 0 | [7] 0 | [8] 0 | [9] 0 | [10] 0

Nc1nc(OCC2CCCCC2)c2[nH]cnc2n1 (10 µM)
inactive: [1] 0 | [2] 0 | [3] 0 | [4] 0 | [5] 0 | [6] 0 | [7] 0 | [8] 0 | [9] 0 | [10] 0

C/C=C(/C)C(=O)O[C@H]1Cc2cc3ccc(=O)oc3cc2OC1(C)C [Decursinol angelate] (10 µM)
inactive: [1] 0 | [2] 0 | [3] 0 | [4] 0 | [5] 0 | [6] 0 | [7] 0 | [8] 0 | [9] 0 | [10] 0
